# From article PMC7948455, “Novel drug discovery platform for spinocerebellar ataxia, using fluorescence technology targeting β-III-spectrin” (The Journal of Biological Chemistry, 2020)
# Assay: Fluorescence interference check (donor-only lifetime and fluorescence spectrum)
# Type: cell-based
# Conditions: 10 μM, Hit at 4SD threshold in at least 2 of the 4 screens, spectral readout
row,SMILES,Fluorescence interference of LOPAC Hit
1,"Nc1ccc2c3c(cccc13)C(=O)NC2=O [4-Amino-1,8-naphthalimide]",fluorescently interfering
2,CC[n+]1c(/C=C/C=C2/N(C)c3ccccc3C2(C)C)sc2ccccc21.[I-] [AC-93253 iodide],fluorescently interfering
3,O=C1NC(=O)/C(=C/c2ccc(-c3ccc(F)cc3O)o2)S1 [AS-252424],fluorescently interfering
4,O=C1Nc2ccc(I)cc2/C1=C/c1cc(Br)c(O)c(Br)c1 [GW5074],fluorescently interfering
5,O=C1C(SCCO)=C(SCCO)C(=O)c2ccccc21 [NSC 95397],fluorescently interfering
6,Oc1c2ccccc2c2c3c(cccc13)N=N2 [SP600125],fluorescently interfering
7,Cc1cc(C)c(/C=C2\C(=O)Nc3ccccc32)[nH]1 [SU 5416],fluorescently interfering
8,O=C(/C=C/c1ccc(O)cc1)CC(=O)/C=C/c1ccc(O)cc1 [bisdemethoxycurcumin],fluorescently interfering
9,OCCN(CCO)c1nc(N2CCCCC2)c2nc(N(CCO)CCO)nc(N3CCCCC3)c2n1 [dipyridamole],fluorescently interfering
10,Cc1c2ccncc2c(C)c2c1[nH]c1ccccc12 [ellipticine],fluorescently interfering
11,Cc1cc(O)c2c(c1)C(=O)c1cc(O)cc(O)c1C2=O [emodin],fluorescently interfering
12,CC(=O)[C@]1(O)Cc2c(O)c3c(c(O)c2[C@@H](O[C@H]2C[C@H](N)[C@H](O)[C@H](C)O2)C1)C(=O)c1ccccc1C3=O [idarubicin],fluorescently interfering
13,CCN(CC)CCCC(C)Nc1c2ccc(Cl)cc2nc2ccc(OC)cc12 (stereo not drawn) [quinacrine dihydrochloride],fluorescently interfering
14,C[n+]1cc2c3c(ccc2c2ccc4cc5c(cc4c21)OCO5)OCO3 [sanguinarine chloride],fluorescently interfering
15,C[C@H](O)C(=O)C1=Nc2c(nc(N)[nH]c2=O)NC1 [sepiapterin],fluorescently interfering
16,CCN(CC)CCNC(=O)c1c(C)[nH]c(/C=C2\C(=O)Nc3ccc(F)cc32)c1C [sunitinib malate],fluorescently interfering
17,Nc1n[n+]([O-])c2ccccc2[n+]1[O-] [tirapazamine],fluorescently interfering
18,CC[C@@]1(O)C(=O)OCc2c1cc1n(c2=O)Cc2cc3c(CN(C)C)c(O)ccc3nc2-1 [topotecan hydrochloride hydrate],fluorescently interfering
19,N#C/C(=C\c1ccc(O)c(O)c1)C(N)=S [tyrphostin 47],fluorescently interfering
20,N#CC(C#N)=C(N)/C(C#N)=C/c1cc(O)c(O)c(O)c1 [tyrphostin 51],fluorescently interfering
21,CC(C)(C)c1cc(/C=C(\C#N)C(N)=S)cc(C(C)(C)C)c1O [tyrphostin AG 879],fluorescently interfering

# Counter-ions that a name gives are not always drawn. Some entries repeat one wording, which the source may state once for all of them.
